Data published in article doi:10.1101/2021.02.20.432055.

Protein sequences, listed by entry. Tags and fused reporters are not part of them.
UniProt Q92616: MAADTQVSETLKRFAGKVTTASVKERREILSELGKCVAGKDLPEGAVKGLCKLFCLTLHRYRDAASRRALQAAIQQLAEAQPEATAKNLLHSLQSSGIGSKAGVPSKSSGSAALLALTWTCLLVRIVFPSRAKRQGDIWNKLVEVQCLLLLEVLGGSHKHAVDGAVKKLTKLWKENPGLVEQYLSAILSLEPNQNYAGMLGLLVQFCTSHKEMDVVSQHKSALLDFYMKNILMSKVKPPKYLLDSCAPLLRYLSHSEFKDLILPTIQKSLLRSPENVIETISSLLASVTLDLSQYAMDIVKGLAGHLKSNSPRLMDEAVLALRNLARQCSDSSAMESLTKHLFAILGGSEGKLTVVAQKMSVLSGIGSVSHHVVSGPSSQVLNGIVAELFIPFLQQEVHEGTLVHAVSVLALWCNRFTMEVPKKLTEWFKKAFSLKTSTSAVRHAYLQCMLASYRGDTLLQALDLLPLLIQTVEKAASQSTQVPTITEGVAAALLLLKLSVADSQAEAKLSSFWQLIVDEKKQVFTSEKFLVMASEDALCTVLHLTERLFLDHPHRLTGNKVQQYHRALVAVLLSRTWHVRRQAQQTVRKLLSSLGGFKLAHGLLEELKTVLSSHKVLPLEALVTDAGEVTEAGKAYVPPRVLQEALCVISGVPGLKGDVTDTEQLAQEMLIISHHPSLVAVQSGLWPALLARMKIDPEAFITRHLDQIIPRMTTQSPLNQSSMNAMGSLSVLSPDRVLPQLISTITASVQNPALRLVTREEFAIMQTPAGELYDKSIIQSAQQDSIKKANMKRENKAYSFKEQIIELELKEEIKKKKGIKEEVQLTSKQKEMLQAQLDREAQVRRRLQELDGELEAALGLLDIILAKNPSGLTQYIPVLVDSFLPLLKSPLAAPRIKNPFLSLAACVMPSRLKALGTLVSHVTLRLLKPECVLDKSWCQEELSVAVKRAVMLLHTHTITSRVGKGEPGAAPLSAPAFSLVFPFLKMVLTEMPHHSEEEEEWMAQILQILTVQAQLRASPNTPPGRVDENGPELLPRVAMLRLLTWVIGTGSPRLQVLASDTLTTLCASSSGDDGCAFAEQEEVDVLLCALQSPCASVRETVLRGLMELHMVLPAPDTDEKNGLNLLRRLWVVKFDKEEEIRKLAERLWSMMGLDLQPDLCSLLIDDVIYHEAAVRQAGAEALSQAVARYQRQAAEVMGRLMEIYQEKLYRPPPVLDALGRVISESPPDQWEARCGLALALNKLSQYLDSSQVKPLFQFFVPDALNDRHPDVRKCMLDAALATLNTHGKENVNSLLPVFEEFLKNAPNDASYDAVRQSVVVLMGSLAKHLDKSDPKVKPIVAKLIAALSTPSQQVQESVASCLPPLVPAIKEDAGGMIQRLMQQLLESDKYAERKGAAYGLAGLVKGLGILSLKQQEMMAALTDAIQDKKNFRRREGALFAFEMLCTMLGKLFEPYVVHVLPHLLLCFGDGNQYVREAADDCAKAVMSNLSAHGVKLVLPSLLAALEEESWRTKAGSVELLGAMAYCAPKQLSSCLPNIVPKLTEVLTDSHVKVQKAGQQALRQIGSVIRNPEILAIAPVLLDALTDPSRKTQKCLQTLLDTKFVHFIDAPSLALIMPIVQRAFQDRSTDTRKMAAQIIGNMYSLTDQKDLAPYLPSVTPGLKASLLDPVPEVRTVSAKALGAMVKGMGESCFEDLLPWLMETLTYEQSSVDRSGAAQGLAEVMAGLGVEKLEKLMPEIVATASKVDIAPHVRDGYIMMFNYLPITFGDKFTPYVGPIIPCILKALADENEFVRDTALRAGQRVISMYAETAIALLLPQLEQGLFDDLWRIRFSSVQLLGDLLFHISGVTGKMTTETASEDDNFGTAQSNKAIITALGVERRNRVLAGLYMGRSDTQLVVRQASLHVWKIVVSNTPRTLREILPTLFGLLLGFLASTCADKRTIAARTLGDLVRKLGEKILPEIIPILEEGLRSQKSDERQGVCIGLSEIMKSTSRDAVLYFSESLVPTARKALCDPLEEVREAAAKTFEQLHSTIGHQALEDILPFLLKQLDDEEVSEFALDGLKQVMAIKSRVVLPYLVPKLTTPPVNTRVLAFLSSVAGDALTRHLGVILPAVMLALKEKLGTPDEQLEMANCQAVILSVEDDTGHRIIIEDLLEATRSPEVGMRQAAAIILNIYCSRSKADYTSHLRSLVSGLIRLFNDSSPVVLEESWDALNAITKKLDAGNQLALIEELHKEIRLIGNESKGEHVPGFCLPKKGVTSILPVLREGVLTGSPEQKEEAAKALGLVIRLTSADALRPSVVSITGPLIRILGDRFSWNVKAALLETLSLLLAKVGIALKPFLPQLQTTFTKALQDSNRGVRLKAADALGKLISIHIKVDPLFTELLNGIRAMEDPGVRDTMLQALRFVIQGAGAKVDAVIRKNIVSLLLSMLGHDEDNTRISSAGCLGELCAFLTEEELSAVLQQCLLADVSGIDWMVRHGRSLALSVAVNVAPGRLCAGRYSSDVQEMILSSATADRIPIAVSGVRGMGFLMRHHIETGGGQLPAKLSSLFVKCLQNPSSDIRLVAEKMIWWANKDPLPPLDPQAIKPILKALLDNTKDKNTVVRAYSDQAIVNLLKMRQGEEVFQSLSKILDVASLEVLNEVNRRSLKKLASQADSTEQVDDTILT
UniProt Q92833: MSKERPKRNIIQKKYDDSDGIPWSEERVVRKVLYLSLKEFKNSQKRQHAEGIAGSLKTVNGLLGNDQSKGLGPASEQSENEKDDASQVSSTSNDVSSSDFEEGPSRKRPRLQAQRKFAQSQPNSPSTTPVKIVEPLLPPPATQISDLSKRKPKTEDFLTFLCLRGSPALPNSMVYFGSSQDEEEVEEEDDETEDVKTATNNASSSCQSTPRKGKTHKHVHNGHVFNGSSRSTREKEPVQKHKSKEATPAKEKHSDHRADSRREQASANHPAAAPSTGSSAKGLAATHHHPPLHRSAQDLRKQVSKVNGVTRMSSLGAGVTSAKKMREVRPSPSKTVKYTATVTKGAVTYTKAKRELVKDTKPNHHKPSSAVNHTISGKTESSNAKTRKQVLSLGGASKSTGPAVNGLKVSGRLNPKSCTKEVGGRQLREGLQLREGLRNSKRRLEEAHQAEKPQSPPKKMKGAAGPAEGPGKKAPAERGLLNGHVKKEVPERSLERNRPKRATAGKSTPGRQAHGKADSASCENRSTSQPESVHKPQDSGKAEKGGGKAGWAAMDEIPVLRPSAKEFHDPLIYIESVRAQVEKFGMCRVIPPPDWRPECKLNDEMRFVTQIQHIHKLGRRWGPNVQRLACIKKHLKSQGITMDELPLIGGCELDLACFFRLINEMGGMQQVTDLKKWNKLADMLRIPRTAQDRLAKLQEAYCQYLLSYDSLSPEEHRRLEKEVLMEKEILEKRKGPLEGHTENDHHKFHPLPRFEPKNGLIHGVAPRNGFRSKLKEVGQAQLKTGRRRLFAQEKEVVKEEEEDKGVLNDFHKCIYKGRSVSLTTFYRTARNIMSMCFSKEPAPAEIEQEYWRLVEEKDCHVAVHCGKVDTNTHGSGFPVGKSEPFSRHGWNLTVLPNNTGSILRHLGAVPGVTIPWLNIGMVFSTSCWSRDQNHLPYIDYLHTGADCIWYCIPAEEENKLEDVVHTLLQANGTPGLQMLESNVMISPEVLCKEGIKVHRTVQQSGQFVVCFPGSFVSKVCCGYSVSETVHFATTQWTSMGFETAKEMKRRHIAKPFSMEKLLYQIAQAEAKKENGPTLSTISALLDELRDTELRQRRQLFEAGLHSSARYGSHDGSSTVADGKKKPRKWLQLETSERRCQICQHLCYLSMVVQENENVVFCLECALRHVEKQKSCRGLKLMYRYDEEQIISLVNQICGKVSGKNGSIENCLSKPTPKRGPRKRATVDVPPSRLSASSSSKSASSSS
UniProt Q9UQE7: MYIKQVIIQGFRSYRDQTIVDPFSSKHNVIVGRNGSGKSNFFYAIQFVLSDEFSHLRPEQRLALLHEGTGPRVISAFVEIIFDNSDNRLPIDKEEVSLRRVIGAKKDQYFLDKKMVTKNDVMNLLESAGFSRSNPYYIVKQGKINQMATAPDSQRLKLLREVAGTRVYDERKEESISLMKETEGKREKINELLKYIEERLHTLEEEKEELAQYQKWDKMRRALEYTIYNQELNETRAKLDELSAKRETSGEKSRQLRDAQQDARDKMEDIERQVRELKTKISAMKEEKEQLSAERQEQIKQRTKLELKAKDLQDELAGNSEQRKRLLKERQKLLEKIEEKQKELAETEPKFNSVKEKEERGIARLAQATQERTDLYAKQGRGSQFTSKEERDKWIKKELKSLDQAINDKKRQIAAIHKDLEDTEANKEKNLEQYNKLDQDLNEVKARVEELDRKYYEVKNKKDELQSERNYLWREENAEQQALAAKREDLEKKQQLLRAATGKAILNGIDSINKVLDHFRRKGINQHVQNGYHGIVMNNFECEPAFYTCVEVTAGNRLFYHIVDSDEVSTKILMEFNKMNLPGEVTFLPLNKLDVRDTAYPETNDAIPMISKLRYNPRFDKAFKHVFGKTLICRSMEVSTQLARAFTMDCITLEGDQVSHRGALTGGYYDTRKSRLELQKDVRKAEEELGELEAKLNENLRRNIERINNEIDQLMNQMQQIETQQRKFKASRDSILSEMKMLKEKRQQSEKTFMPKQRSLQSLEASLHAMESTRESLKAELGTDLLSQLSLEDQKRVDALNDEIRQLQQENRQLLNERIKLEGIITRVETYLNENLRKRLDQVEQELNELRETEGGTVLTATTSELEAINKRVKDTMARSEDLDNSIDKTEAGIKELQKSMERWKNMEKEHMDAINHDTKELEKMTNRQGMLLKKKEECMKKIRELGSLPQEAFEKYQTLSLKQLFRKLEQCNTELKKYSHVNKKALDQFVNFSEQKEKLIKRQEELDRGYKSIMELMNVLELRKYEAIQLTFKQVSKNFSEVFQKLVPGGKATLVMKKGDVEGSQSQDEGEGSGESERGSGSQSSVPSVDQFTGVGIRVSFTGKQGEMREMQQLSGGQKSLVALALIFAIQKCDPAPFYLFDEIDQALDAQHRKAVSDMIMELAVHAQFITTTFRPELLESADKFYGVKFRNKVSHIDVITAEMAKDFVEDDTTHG
UniProt Q07955: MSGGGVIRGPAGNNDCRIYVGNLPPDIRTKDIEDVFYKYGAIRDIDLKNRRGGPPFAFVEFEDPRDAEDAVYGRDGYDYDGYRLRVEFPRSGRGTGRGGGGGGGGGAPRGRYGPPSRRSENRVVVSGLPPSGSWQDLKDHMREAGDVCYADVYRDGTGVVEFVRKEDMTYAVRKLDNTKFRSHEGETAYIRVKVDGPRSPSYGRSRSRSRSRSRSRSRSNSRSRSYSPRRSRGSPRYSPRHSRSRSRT
UniProt O60506: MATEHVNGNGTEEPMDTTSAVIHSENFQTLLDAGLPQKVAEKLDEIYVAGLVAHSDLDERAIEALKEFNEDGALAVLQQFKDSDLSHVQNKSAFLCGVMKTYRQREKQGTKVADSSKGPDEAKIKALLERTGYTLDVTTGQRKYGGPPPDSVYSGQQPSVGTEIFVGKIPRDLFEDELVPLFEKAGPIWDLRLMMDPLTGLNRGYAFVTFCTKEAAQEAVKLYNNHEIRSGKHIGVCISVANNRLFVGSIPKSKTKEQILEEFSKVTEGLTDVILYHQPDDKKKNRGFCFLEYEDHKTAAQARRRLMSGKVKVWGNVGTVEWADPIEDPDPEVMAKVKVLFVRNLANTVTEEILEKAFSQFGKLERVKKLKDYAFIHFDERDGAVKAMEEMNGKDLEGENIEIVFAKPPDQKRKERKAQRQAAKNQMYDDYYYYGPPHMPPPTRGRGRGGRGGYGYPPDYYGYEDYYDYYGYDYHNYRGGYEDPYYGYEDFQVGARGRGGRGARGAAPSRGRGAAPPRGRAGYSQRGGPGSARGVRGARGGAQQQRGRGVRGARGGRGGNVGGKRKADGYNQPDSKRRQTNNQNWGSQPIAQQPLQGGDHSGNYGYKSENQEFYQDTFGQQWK

T1: SA1 (Stromalin Antigen 1, STAG1) (human (endogenous in HCT116)) (UniProt Q8WVM7)
T1 sequence: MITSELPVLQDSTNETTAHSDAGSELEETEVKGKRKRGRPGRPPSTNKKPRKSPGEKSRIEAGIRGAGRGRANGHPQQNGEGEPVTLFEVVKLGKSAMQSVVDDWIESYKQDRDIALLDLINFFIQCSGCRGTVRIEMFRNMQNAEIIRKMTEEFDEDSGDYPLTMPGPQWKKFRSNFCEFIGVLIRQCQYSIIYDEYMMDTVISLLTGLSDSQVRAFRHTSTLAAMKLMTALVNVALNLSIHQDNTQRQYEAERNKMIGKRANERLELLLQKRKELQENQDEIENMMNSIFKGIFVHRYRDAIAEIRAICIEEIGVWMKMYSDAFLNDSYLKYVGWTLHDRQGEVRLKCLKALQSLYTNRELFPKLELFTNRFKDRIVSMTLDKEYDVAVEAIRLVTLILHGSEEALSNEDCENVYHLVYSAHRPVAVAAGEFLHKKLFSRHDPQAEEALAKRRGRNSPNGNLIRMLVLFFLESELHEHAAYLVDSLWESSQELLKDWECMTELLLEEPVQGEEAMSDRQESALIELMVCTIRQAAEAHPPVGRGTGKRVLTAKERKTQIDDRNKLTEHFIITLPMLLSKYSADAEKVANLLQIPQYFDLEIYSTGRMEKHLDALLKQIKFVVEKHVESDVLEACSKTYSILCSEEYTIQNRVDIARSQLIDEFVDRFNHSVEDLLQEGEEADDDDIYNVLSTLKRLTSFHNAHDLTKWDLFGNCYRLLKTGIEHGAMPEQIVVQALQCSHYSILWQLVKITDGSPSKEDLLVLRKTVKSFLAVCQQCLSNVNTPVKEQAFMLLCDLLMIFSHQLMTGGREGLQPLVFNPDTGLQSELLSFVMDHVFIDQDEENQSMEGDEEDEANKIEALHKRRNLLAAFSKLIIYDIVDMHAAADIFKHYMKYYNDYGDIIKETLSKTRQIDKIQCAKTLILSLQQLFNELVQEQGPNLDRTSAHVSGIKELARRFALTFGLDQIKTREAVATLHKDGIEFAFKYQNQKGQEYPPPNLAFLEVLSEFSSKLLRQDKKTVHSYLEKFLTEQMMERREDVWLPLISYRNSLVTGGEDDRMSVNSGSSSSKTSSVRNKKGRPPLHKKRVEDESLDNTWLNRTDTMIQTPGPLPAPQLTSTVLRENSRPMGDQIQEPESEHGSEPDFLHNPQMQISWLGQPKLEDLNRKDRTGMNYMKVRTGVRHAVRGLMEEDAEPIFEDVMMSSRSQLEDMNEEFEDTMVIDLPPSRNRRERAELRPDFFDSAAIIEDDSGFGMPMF

B1: SMC1A (protein, UniProt Q14683 1-1233)
chain: MGFLKLIEIENFKSYKGRQIIGPFQRFTAIIGPNGSGKSNLMDAISFVLGEKTSNLRVKTLRDLIHGAPVGKPAANRAFVSMVYSEEGAEDRTFARVIVGGSSEYKINNKVVQLHEYSEELEKLGILIKARNFLVFQGAVESIAMKNPKERTALFEEISRSGELAQEYDKRKKEMVKAEEDTQFNYHRKKNIAAERKEAKQEKEEADRYQRLKDEVVRAQVQLQLFKLYHNEVEIEKLNKELASKNKEIEKDKKRMDKVEDELKEKKKELGKMMREQQQIEKEIKEKDSELNQKRPQYIKAKENTSHKIKKLEAAKKSLQNAQKHYKKRKGDMDELEKEMLSVEKARQEFEERMEEESQSQGRDLTLEENQVKKYHRLKEEASKRAATLAQELEKFNRDQKADQDRLDLEERKKVETEAKIKQKLREIEENQKRIEKLEEYITTSKQSLEEQKKLEGELTEEVEMAKRRIDEINKELNQVMEQLGDARIDRQESSRQQRKAEIMESIKRLYPGSVYGRLIDLCQPTQKKYQIAVTKVLGKNMDAIIVDSEKTGRDCIQYIKEQRGEPETFLPLDYLEVKPTDEKLRELKGAKLVIDVIRYEPPHIKKALQYACGNALVCDNVEDARRIAFGGHQRHKTVALDGTLFQKSGVISGGASDLKAKARRWDEKAVDKLKEKKERLTEELKEQMKAKRKEAELRQVQSQAHGLQMRLKYSQSDLEQTKTRHLALNLQEKSKLESELANFGPRINDIKRIIQSREREMKDLKEKMNQVEDEVFEEFCREIGVRNIREFEEEKVKRQNEIAKKRLEFENQKTRLGIQLDFEKNQLKEDQDKVHMWEQTVKKDENEIEKLKKEEQRHMKIIDETMAQLQDLKNQHLAKKSEVNDKNHEMEEIRKKLGGANKEMTHLQKEVTAIETKLEQKRSDRHNLLQACKMQDIKLPLSKGTMDDISQEEGSSQGEDSVSGSQRISSIYAREALIEIDYGDLCEDLKDAQAEEEIKQEMNTLQQKLNEQQSVLQRIAAPNMKAMEKLESVRDKFQETSDEFEAARKRAKKAKQAFEQIKKERFDRFNACFESVATNIDEIYKALSRNSSAQAFLGPENPEEPYLDGINYNCVAPGKRFRPMDNLSGGEKTVAALALLFAIHSYKPAPFFVLDEIDAALDNTNIGKVANYIKEQSTCNFQAIVISLKEEFYTKAESLIGVYPEQGDCVISKVLTFDLTKYPDANPNPNEQ

Each molecule was assayed against T1, SA1 (Stromalin Antigen 1, STAG1) (human (endogenous in HCT116)) (assay: affinity purification with mass spectrometry).

binding, binds:
GCN1L1 (from UniProt Q92616 1-2671)
JARID2 (from UniProt Q92833 1-1246)
SMC3 (from UniProt Q9UQE7 1-1217)
SON (from UniProt P18583 1-2426)
SRSF1 (from UniProt Q07955 1-248)
SYNCRIP (from UniProt O60506 1-623)
B1

No constants are given. Whether binding was seen depends on the method and setting. Binding seen in cells or lysates may run through a third protein. These calls come from enrichment with a bait or labelling near it, and not all partners need be listed. Where a sequence is shown, tags or fusion partners need not be part of it.
